## Assay results

The results are deposited in PubChem (AID1159506; NCATS, 2015).

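Genome-wide siRNA knockdown in TC32 Ewing sarcoma cells, comparing luciferase light from an NR0B1-promoter reporter with a CMV-promoter reporter 48 hours after transfection. Each siRNA was applied at 20 nM. A z-score of the log NR0B1-over-CMV signal, less the median of siRNAs with the same seed; more negative means a stronger specific loss of the NR0B1 reporter.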

The strongest results of the screen are mostly left out here. Sequences are the guide (antisense) strand, without overhang.

siRNA	target gene	seed-corrected z-score
AAUGUUCUCACCGUACGCC	ATP1B1	-0.2233
UGUGGAUCUACUCUCCCUC	LAIR1	0.8533
UUAGGAGAUCGGGUUCAAC	C11orf71	-0.3488
UCUCAAUCCUGUAGGGUCC	MKS1	-0.01596
UAGGAGUAAAGCACCCUGC	HMGXB4	-0.2357
UUCGUAAUACUGCACAGCU	PGAM5	1.971
UGUUGACAAAGUACACGUC	GPR146	-0.2533
UGAACAUACGCCUAUGUGG	MROH2B	0.3074
UGGGUUAUAGCUGUAGAUG	MAF1	0.6623
UUGGGUGUAGCAGCGAAGG	LHX1	-0.6858
UAGCGAUCCAAGAUCUCUG	PCDH15	0.3552
UCCUCUUUAUUACUAGUCC	STAU1	0.1439
AAUGCGACCACGGUGAUAC	RPS24P4	0.1251
UCAGGUUGAUUUGUAAGGC	OR6C4	-0.06914
UUUCUGUCGUUUCAGGGUG	NGRN	0.6472
UUACAUCUAUGAUACGGAG	PCDHB3	0.06246
UAGGCAAUGAUCAACUGGG	MBOAT4	0.2004
UACCUUGCAUGCUUAACUC	ATXN3L	-0.6317
UGUAUUAAAAGCUUCAACU	LOC401021	0.05682
UCCGUUCUCAUCUCGCAGC	NFE2L1	-0.2397
UCAUUAUCUCCCGCAGCUG	ANXA8L1	-0.08927
UUCUUGUCCGCCAUGGAGG	GPR157	-0.1402
UUGGUGUAGCACAAAAUGC	C14orf177	-0.7459
UGUCUUCUGCUCGUCGUCC	PALM	-0.4862
UGUUGAGUAAGAUUAUAGC	ZNF546	0.1308
UGUUGUACUGAAACGGGAC	C2CD4A	-0.4526
UCCGCAAUGAUGAAACCUC	TGM4	-0.297
UCAGGGUCUAGACAGCUUU	ARHGEF17	0.7301
ACAGAUAAAGGUCCUCAGG	RNASEH2C	-0.1682
UACAUCCCUAUAUAAGUCC	ZFP14	-0.09431
UAGCGUGAAAAUCAGAUUC	ZCCHC11	1.706
UUCUCGUAAGCAAACGUGG	FERD3L	0.5347
UUGAAGAUUCUAAAAACCC	KCNA1	0.2859
UAAUAUGAUCUUCCGGUUC	SPAG6	0.1261
AAGGGUACCAAAGUCAAUG	MALRD1	-0.2327
UCACUGAUGAUACUAAAUC	TTC12	-0.002321
UCUCCAUCACGCUUUCAGC	DEAF1	-0.2811
UGUAAUACAACCGCUUUCC	ANAPC5	-0.1372
UACAGAUCCCUGACAAGGC	PEX11A	0.8372
AAACUGAUAUCAGCUAGCC	DDX31	0.03943
UUUUCCGCAAAGAUCUUUC	TOPORS	0.2725
UUCUUAUCCAGUUUCUCAC	ATF4	0.02722

Some entries from above, unchanged:

UUCUUGUCCGCCAUGGAGG against GPR157 gave seed-corrected z-score -0.1402.
UCUCCAUCACGCUUUCAGC against DEAF1 gave seed-corrected z-score -0.2811.
UUCGUAAUACUGCACAGCU against PGAM5 gave seed-corrected z-score 1.971.